The subject of the series is HEK293T cells. The series is described as follows: Surface immunofluorescence of Flag-tagged olfactory receptors (OR trafficking). It counts as cell-based. Also on record: key: −: No detectable OR surface expression; +: OR surface expression detected in the majority of fields of view (>90% of all fields of view); *: OR surface expression detected in a minority of fields of view (<50% of all fields of view).

The mark [1] stands for this setting: Lucy-OR construct, chaperones: None.
Setting [2] is: Lucy-OR construct, chaperones: RTP1S, Ric8b, Gαolf.
[3] abbreviates: Lucy-Rho-OR construct, chaperones: None.
The mark [4] stands for this setting: Lucy-Rho-OR construct, chaperones: RTP1S, Ric8b, Gαolf.
[5] abbreviates: OR construct (Flag tag only), chaperones: RTP1S, Ric8b, Gαolf.
Where [6] appears, read: OR construct (Flag tag only, no Rho or Lucy tag), chaperones: None.
Setting [7] is: Rho-OR construct, chaperones: None.
[8] abbreviates: Rho-OR construct, chaperones: RTP1S, Ric8b, Gαolf.

B1: hOR52B2: human homologue of Olfr691, Flag-tagged construct with or without Rho and Lucy tags (protein, UniProt Q96RD2 1-323, looked up)
Olfactory receptor 52B2: MSHTNVTIFHPAVFVLPGIPGLEAYHIWLSIPLCLIYITAVLGNSILIVVIVMERNLHVPMYFFLSMLAVMDILLSTTTVPKALAIFWLQAHNIAFDACVTQGFFVHMMFVGESAILLAMAFDRFVAICAPLRYTTVLTWPVVGRIALAVITRSFCIIFPVIFLLKRLPFCLTNIVPHSYCEHIGVARLACADITVNIWYGFSVPIVMVILDVILIAVSYSLILRAVFRLPSQDARHKALSTCGSHLCVILMFYVPSFFTLLTHHFGRNIPQHVHILLANLYVAVPPMLNPIVYGVKTKQIREGVAHRFFDIKTWCCTSPLGS
modifications: Flag tag; optional Rho and Lucy tags
For B1, the OR surface expression entry by setting is: under setting [1], “+ (OR surface expression detected in the majority of fields of view (>90% of all fields of view))”; under setting [2], “+ (OR surface expression detected in the majority of fields of view (>90% of all fields of view))”; under setting [3], “+ (OR surface expression detected in the majority of fields of view (>90% of all fields of view))”; under setting [4], “+ (OR surface expression detected in the majority of fields of view (>90% of all fields of view))”; under setting [5], “−”; under setting [6], “−”. The OR surface expression entry by setting is: under setting [7], “−”; under setting [8], “−”.

B2: Olfr78: murine olfactory receptor, Flag-tagged construct with or without Rho and Lucy tags (protein, UniProt Q8VBV9 1-320, looked up)
Olfactory receptor 51E2: MSSCNFTHATFLLIGIPGLEEAHFWFGFPLLSMYAVALFGNCIVVFIVRTERSLHAPMYLFLCMLAAIDLALSTSTMPKILALFWFDSREITFDACLAQMFFIHTLSAIESTILLAMAFDRYVAICHPLRHAAVLNNTVTVQIGMVALVRGSLFFFPLPLLIKRLAFCHSNVLSHSYCVHQDVMKLAYTDTLPNVVYGLTAILLVMGVDVMFISLSYFLIIRTVLQLPSKSERAKAFGTCVSHISVVLAFYVPLIGLSVVHRFGNSLDPIVHVLMGDVYLLLPPVINPIIYGAKTKQIRTRVLAMFKISCDKDIEAGGNT
modifications: Flag tag; optional Rho and Lucy tags
With B2, the OR surface expression entry is on record as “+ (OR surface expression detected in the majority of fields of view (>90% of all fields of view))” under setting [1]; “+ (OR surface expression detected in the majority of fields of view (>90% of all fields of view))” under setting [2]; “+ (OR surface expression detected in the majority of fields of view (>90% of all fields of view))” under setting [3]; “+ (OR surface expression detected in the majority of fields of view (>90% of all fields of view))” under setting [4]; “+ (OR surface expression detected in the majority of fields of view (>90% of all fields of view))” under setting [5]; “+ (OR surface expression detected in the majority of fields of view (>90% of all fields of view))” under setting [6]. In addition, the OR surface expression result under setting [7] is given as “+ (OR surface expression detected in the majority of fields of view (>90% of all fields of view))” and the OR surface expression entry under setting [8] is listed as “+ (OR surface expression detected in the majority of fields of view (>90% of all fields of view))”.

B3: hOR51E2: human olfactory receptor, Flag-tagged construct with or without Rho and Lucy tags (protein, UniProt Q9H255 1-320, looked up)
Olfactory receptor 51E2: MSSCNFTHATFVLIGIPGLEKAHFWVGFPLLSMYVVAMFGNCIVVFIVRTERSLHAPMYLFLCMLAAIDLALSTSTMPKILALFWFDSREISFEACLTQMFFIHALSAIESTILLAMAFDRYVAICHPLRHAAVLNNTVTAQIGIVAVVRGSLFFFPLPLLIKRLAFCHSNVLSHSYCVHQDVMKLAYADTLPNVVYGLTAILLVMGVDVMFISLSYFLIIRTVLQLPSKSERAKAFGTCVSHIGVVLAFYVPLIGLSVVHRFGNSLHPIVRVVMGDIYLLLPPVINPIIYGAKTKQIRTRVLAMFKISCDKDLQAVGGK
modifications: Flag tag; optional Rho and Lucy tags
In the case of B3, the OR surface expression result is recorded as “+ (OR surface expression detected in the majority of fields of view (>90% of all fields of view))” under setting [1]; “+ (OR surface expression detected in the majority of fields of view (>90% of all fields of view))” under setting [2]; “+ (OR surface expression detected in the majority of fields of view (>90% of all fields of view))” under setting [3]; “+ (OR surface expression detected in the majority of fields of view (>90% of all fields of view))” under setting [4]; “+ (OR surface expression detected in the majority of fields of view (>90% of all fields of view))” under setting [5]; “+ (OR surface expression detected in the majority of fields of view (>90% of all fields of view))” under setting [6]. Moreover, the OR surface expression result by setting is: under setting [7], “+ (OR surface expression detected in the majority of fields of view (>90% of all fields of view))”; under setting [8], “+ (OR surface expression detected in the majority of fields of view (>90% of all fields of view))”.
